# In patent publication US8597632B2, “Anionic oligosaccharide conjugates” (Glycan Biosciences LLC, priority 2008, dated 2013):
# At least one compound was matched to its structure with a doubt left.
# How the values were obtained:
# [1] = tested on: allergic rhinitis model in the guinea pig; test: Allergic rhinitis model in the guinea pig (OVA); type: in vivo; settings: 8 hours after challenge
# [2] = tested on: guinea pig model of asthma; test: Guinea pig model of asthma (OVA); type: in vivo; settings: 2.5 mg/kg pretreatment (FIG. 5)
smiles,measurement,setting,value
"CCCC1O[C@@H]2C[C@H]3[C@@H]4CCC5=CC(=O)C=C[C@]5(C)[C@H]4[C@@H](O)C[C@]3(C)[C@]2(C(=O)CO)O1 (stereo partly drawn) [Budesonide, reference compound]",plasma exudation in the nasal lavage,[1],marked decrease in plasma exudation in the nasal lavage
same,total white cell numbers in the nasal lavage fluid,[1],marked decrease in the total white cell numbers in the nasal lavage fluid
same,inhibition of OVA induced leukocyte influx in BAL,[2],did not significantly inhibit leukocyte influx
